Laboratory results published in patent US20120251453A1 (SANFORD BURNHAM MEDICAL RESEARCH INSTITUTE, published 2012).
Results are given in words; binding and its absence hold for the method and conditions named. For some of these results: Binding can be weak; no strength is given.

Experiments:
[1] = biological target: recombinant Anxa1-His6 protein; assay: fluorescence plate assay: wells coated with rising amounts of Anxa1-His, labelled peptide added, washed, FI (FRU) read
[2] = biological target: recombinant Anxa1-His6 protein; assay: plate assay, fluorescent peptide on wells coated with Anxa1-His6
[3] = biological target: recombinant Anxa1-His6 protein; assay: condition: about 250 ng/well of coated Anxa1-His (last tick label cut off); fluorescence plate assay: wells coated with rising amounts of Anxa1-His, labelled peptide added, washed, FI (FRU) read

binding [1]	binding [2]	binding [3]	Binder
binds	binds	–	IFLLWQRC (Alexa fluor 488 C5-maleimide conjugated to IF7C (the C-terminal Cys)) [IF7-A488 (chemically synthesized IF7 conjugated with fluorescent Alexa 488)]
–	no binding	no binding	RQWLLFI (conjugated with Alexa 488; site of attachment not stated) [RQ7-A488 (Alexa 488 conjugated with RQWLLFI or reverse IF7)]
